Experimental data as given in patent US20160184459A1, “CANCER CELL SPECIFIC IMAGING PROBES AND METHODS OF USE” (THE RESEARCH FOUNDATION FOR THE STATE UNIVERSITY OF NEW YORK, priority 2013, published 2016).

Tested on: BxPC3 cells (shSki)
Assay: MTT cell viability assay, BxPC3 shSki
Format: cell-based, human
Settings: 72 hr
Method: FIG. 24. Effect of the prodrug on cell viability of BxPC3 cells (shGFP and shSki). Cells were treated with the indicated dose of drugs (BKAc-5FCR or 5FCR) for 72 hr followed by MTT assay. Data represent mean values of triplicate measurements±standard deviation. IC50 values were derived from nonlinear curve fit of the dose response data using an outlier's exclusion, variable slope model (GraphPad Prism software). All values are means of at least two independent experiments.
The in vitro efficacy of the compounds in a series of BxPC3 and CFPac-1 derivatives with reduced Class I HDAC activity following Ski knockdown (shSki), HDAC3 knockdown and control (shGFP) was assessed. The growth inhibitory/viability effects of the compounds (IC50 value, the concentration resulting in 50% growth inhibition) on the various cell lines were determined by dose response curve analysis (GraphPad Prism software) of MTT [3-(4,5dimethylthiazol-2-yl)-2,5-diphenyl-tetrazolium bromide] cell viability assay. If the prodrugs are activated in an HDAC-dependent manner, the cells with reduced HDAC activity would be predicted to be more resistant to the prodrug treatment than control cells, while the effect of free parental drugs on both cells would be expected to be similar.

Compound	Difference in IC50 values, shSki versus shGFP
CC(=O)NCCCCC(NC(=O)OC(C)(C)C)C(=O)Nc1nc(=O)n([C@@H]2O[C@H](CO)[C@@H](O)[C@H]2O)cc1F (stereo partly drawn) [BKAc-5FCR, t-butyl (6-acetamido-1-((1-((2R,3R,4S,5R)-3,4-dihydroxy-5-(hydroxymethyl)tetrahydrofuran-2-yl)-5-fluoro-2-oxo-1,2-dihydropyrimidin-4-yl)amino)-1-oxohexan-2-yl) carbamate]	two-fold
Nc1nc(=O)n([C@@H]2O[C@H](CO)[C@@H](O)[C@H]2O)cc1F [5FCR, 5-fluorocytidine]	no significant changes
